Structures can show the parent of a compound that is named as a salt. The list shows a part of the results. Many values rest on one well or one pass, so single values are uncertain.
test system: hsa-miR-132-3p; assay: miR-132-3p level in NGN2-iNs after compound treatment (TMM-normalised, ComBat batch-corrected) (batch-corrected normalised expression (arbitrary units)); higher = higher miR-132-3p expression; conditions: 10 µM; 24 h; human iPSC-derived NGN2 neurons (BR43)

| Structure (SMILES) | miR-132-3p level in NGN2-iNs |
| --- | --- |
| COc1ccc(CC2c3cc(OC)c(OC)cc3CC[N+]2(C)CCC(=O)OCCCCCOC(=O)CC[N+]2(C)CCc3cc(OC)c(OC)cc3C2Cc2ccc(OC)c(OC)c2)cc1OC (centres undefined) [Atracurium Besylate] | -0.71 |
| CC(=O)[C@H]1CC[C@H]2[C@@H]3CC=C4C[C@@H](O)CC[C@]4(C)[C@H]3CC[C@]12C [Pregnenolone] | 0.134 |
| CC(C(=O)O)c1ccc2c(c1)CC(=O)c1ccccc1S2 (centres undefined) [Zaltoprofen] | -1.51 |
| Oc1cc2c(cc1O)[C@@H]1c3ccc(O)c(O)c3OC[C@]1(O)C2 [Hematoxylin] | -0.85 |
| Cc1nc(-c2ccc(OCC(C)C)c(C#N)c2)sc1C(=O)O [Febuxostat] | -0.302 |
| Cc1nc(Nc2ncc(C(=O)Nc3c(C)cccc3Cl)s2)cc(N2CCN(CCO)CC2)n1 [Dasatinib] | 0.505 |
| CCN1CCN(Cc2ccc(-c3cc4c(N[C@H](C)c5ccccc5)ncnc4[nH]3)cc2)CC1 | 0.667 |
| CCOC(=O)c1c(CSc2ccccc2)n(C)c2cc(Br)c(O)c(CN(C)C)c12 [Arbidol HCl] | 0.625 |
| CCCCN1CCCCC1C(=O)Nc1c(C)cccc1C (centres undefined) [Bupivacaine HCl] | 1.06 |
| C[C@H]1O[C@@H](Oc2c(-c3cc(O)c(O)c(O)c3)oc3cc(O)cc(O)c3c2=O)[C@@H](O)[C@@H](O)[C@@H]1O [Myricitrin] | -0.383 |
| Cc1ccc2c(=O)c3cccc(CC(=O)O)c3oc2c1C [Vadimezan (ASA404)] | -0.71 |
| Cc1cc(C)c(S(=O)(=O)n2cc(C)cc2C)c(C)c1 | -0.839 |
| O=C(O)[C@H]1O[C@@H](Oc2cc3oc(-c4ccccc4)cc(=O)c3c(O)c2O)[C@H](O)[C@@H](O)[C@@H]1O [Baicalin] | -0.102 |
| O=C1C(=O)c2ccccc2C(O)=C1C1CCC(c2ccc(Cl)cc2)CC1 (centres undefined) [Atovaquone] | -1.11 |
| c1cncc(CN2CCC(n3ncc4c(N5CCOCC5)nc(-c5ccc6[nH]ccc6c5)nc43)CC2)c1 | -0.811 |
| O=c1[nH]cnc2c1ncn2[C@@H]1O[C@H](CO)[C@@H](O)[C@H]1O [Inosine] | 0.401 |
| O=C1NC(=O)/C(=C/c2ccc3c(c2)OC(F)(F)O3)S1 | 0.691 |
| Nc1ccc(C(=O)Nc2cccc(-c3nc(N4CCOCC4)c4oc5ncccc5c4n3)c2)cn1 | -0.0515 |
| COc1cc(C(C)=O)ccc1O [Apocynin (NSC 2146)] | 0.771 |
| O=C(CCCCCCC(=O)Nc1ccc([C@H]2O[C@@H](CSc3nc(-c4ccccc4)c(-c4ccccc4)o3)C[C@@H](c3ccc(CO)cc3)O2)cc1)NO [Tubacin] | 0.00216 |

| Structure (SMILES) | miR-132-3p level in NGN2-iNs |
| --- | --- |
| CN(Cc1cnc2nc(N)nc(N)c2n1)c1ccc(C(=O)N[C@@H](CCC(=O)O)C(=O)O)cc1 [Methotrexate] | -2.84 |
| CCOC(=O)c1ccc(N)cc1 [Benzocaine] | 0.695 |
| CCN(CC)CCOC(=O)C(c1ccccc1)c1ccccc1 [Adiphenine HCl] | 1.2 |
| COc1cc(NC(C)CCCN)c2ncccc2c1 (centres undefined) [Primaquine Diphosphate] | -0.0699 |
| Cc1ccc([N+](=O)[O-])cc1S(=O)(=O)N(C)/N=C/c1cnc2ccc(Br)cn12 | -2.85 |
| NC(N)=Nc1nc(CSCC/C(N)=N/S(N)(=O)=O)cs1 [Famotidine] | -2.29 |
| CC/C(=C(/CC)c1ccc(O)cc1)c1ccc(O)cc1 [Diethylstilbestrol] | -0.17 |
| CC1=C(/C=C/C(C)=C/C=C/C(C)=C\C(=O)O)C(C)(C)CCC1 [Isotretinoin] | 0.202 |
| COc1cc(OC)c(/C=C/S(=O)(=O)Cc2ccc(OC)c(NCC(=O)O)c2)c(OC)c1 | 2.76 |
| OC(CN1CCN(c2cccc(Cl)c2)CC1)C(c1ccccc1)c1ccccc1 (centres undefined) | -1.31 |
| Cc1ccc2nc(NC(=O)CSc3nc4c(c(=O)n3-c3ccccc3)SCC4)sc2c1 | -1.06 |
| Cn1cc(-c2ccc3c(c2)CCN3C(=O)Cc2cccc(C(F)(F)F)c2)c2c(N)ncnc21 | 0.00914 |
| O=C(/C=C/c1ccc(O)c(O)c1)O[C@@H]1C[C@](O)(C(=O)O)C[C@@H](O)[C@H]1O [Chlorogenic Acid] | -0.0394 |
| C[C@@H]1COC(Nc2ccc3ncnc(Nc4ccc(OCc5nccs5)c(Cl)c4)c3c2)=N1 [Varlitinib] | 0.29 |
| CCN(CC)CCCCNc1ncc2cc(-c3cc(OC)cc(OC)c3)c(NC(=O)NC(C)(C)C)nc2n1 | 0.328 |
| CC[C@@H](CO)NCCN[C@@H](CC)CO [Ethambutol 2HCl] | -2.13 |
| C=CS(=O)(=O)NC1CCN(C(=O)CNc2cc(I)c(Cl)cc2OC)CC1 [K-Ras(G12C) inhibitor 9] | -0.822 |
| CCCOc1ccc(C(=O)OCCN(CC)CC)cc1N [Proparacaine HCl] | -0.896 |
| CN1C2CCC1CC(OC(=O)C(O)c1ccccc1)C2 (centres undefined) [Homatropine Bromide] | 0.0788 |

Random excerpt: three records from the list, in no set order.

| Structure (SMILES) | miR-132-3p level in NGN2-iNs |
| --- | --- |
| O=C1NC(=O)/C(=C/c2ccc3c(c2)OC(F)(F)O3)S1 | 0.691 |
| CCN(CC)CCOC(=O)C(c1ccccc1)c1ccccc1 [Adiphenine HCl] | 1.2 |
| Nc1ccc(C(=O)Nc2cccc(-c3nc(N4CCOCC4)c4oc5ncccc5c4n3)c2)cn1 | -0.0515 |

Source: the supplement of paper PMC10663445
